These are yes or no findings as the source states them, for the method shown. Some binding calls cover weakened binding; strength is not graded here.
T1: biotinylated GITR (GITR-bio) (UniProt Q9Y5U5)
T1 sequence (biotinylated, looked up): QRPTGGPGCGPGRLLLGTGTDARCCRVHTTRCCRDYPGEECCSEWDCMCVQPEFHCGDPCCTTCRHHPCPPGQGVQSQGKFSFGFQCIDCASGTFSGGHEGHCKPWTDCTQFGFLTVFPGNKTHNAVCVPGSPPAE

B1: chimeric parental 231-32-15 antibody (antibody, V domains shown)
VH: QVQLLQSGTELVRPGVSVKISCKGSGYTFTDYAMYWVKQSHAKSLEWIGVIRTYSGDVTYNQKFKDKATMTVDKSSSIAYMELARLSSEDSAIYYCAKSGTVRGFAYWGQGTLVTVSS
VL: DIVMTQSPSSLTVTAGEKVIMSCKSSQSLLNSGNQKNYLTWYQQKPGQPPKLLIYWASTRESGVPDRFTGSGSGTDFTLTISSVQAEDLAVYHCQNDYSYPYTFGGGTKLEIK
notes: elsewhere it was used as soluble antibody
B2: pab1875 (antibody, V domains shown)
VH: QVQLVQSGAEVKKPGASVKVSCKGSGYTFTDYAMYWVRQAPGQGLEWIGVIRTYSGDVTYNQKFKDRATMTVDKSISTAYMELSRLRSDDTAVYYCAKSGTVRGFAYWGQGTLVTVSS
VL: DIVMTQSPPTLSLSPGERVTLSCKSSQSLLNSGNQKNYLTWYQQKPGQAPRLLIYWASTRESGIPARFSGSGSGTDFTLTISSLQPEDFAVYHCQNDYSYPYTFGQGTKLEIK
B3: pab1876 (antibody, human IgG1, V domains shown)
VH: B2 VH
VL: DIVMTQSPDSLAVSLGERATINCKSSQSLLNSGNQKNYLTWYQQKPGQPPKLLIYWASTRESGVPDRFSGSGSGTDFTLTISSLQAEDVAVYHCQNDYSYPYTFGQGTKLEIKR
notes: Human IgG1 with T109S (Kabat) in the light chain constant domain

Assays:
[1] = molecular target: T1, biotinylated GITR (GITR-bio); assay: flow cytometry, antibody on 1624-5 pre-B cells, GITR-bio detected with streptavidin-PE
[2] = molecular target: T1, biotinylated GITR (GITR-bio); assay: flow cytometry competition: 2 µg antibody pre-incubated with GITR-bio, loss of binding to cells expressing 231-32-15

Row | Binder | binding [1] | binding [2]
1 | B1 | binds | 
2 | B2 |  | binds
3 | B3 |  | binds
